The series concerns canine plasma proteins. The experiment in a line: In vitro canine plasma protein binding rate of compounds. The conditions noted are these: 1 mM, ultracentrifugation, 37 °C, individual replicates. The procedure: 1. Test samples: EIucirem™ (Gadopiclenol, commercially purchased, lot P233A), compound 4
Elucirem™ and compound 4 were respectively diluted with blank canine plasma to prepare plasma samples at a concentration of 1 mM. The binding rates of Gadopiclenol and compound 4 to canine plasma proteins were determined by ultracentrifugation. After the preparation of plasma samples, 0.5 mL of plasma samples were transferred into ultracentrifugation tubes, with 3 replicates per concentration. After incubation in a CO2 incubator at 37 °C for 0.5 h, the samples were subjected to ultracentrifugation at 627,000 g for 3 hours at 37 °C. After centrifugation, 100 μL of samples were taken from the central layer of the ultracentrifugation tubes and mixed with 100 μL of blank plasma. The samples were stored at −70 °C for subsequent determination. The concentrations of Gadopiclenol and compound 4 in the samples were quantitatively analyzed by LC-MS/MS.
The plasma protein binding rates of analytes at different concentration levels were calculated using the following formulas:
Free rate %=(Concentration of the central layer in ultracentrifugation tubes(Cu)/Concentration of non-ultracentrifuged samples after 0.5 h incubation(C0-5h))*100%, • Binding rate %=100%—Free rate %.

For part of its entries the source gives two or more results. They are shown here; other results are not. There may be further records. The values listed for one entry differ for a reason that is not stated; some may be repeats, others may stem from another dose, organism or construct than stated.

Consider Gadopiclenol, for which the Binding rate % is −1.27%, −2.05%, −0.41%.

These data come from patent US20260382770A1, “MACROCYCLIC COMPOUND AND USE THEREOF” (published 2026).
